Experimental data as given in publication PMC13276377.
No constants are given. Whether binding was seen depends on the method and setting. Some entries that bind do so weakly or less than the wild type.

Sequences of proteins named here, by UniProt entry; tags and fusion partners are left off. Residues count along the entry.
UniProt Q99836, residues 153-296: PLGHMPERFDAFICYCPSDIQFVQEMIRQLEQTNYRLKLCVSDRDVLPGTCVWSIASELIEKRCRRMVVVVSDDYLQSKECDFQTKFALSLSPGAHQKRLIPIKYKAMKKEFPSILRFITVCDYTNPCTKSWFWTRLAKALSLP
UniProt O60602, residues 685-858: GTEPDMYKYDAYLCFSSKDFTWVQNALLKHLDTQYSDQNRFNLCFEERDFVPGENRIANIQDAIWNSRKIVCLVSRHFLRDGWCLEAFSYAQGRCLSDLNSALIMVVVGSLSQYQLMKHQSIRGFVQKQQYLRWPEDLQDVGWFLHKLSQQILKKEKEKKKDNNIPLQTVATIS

Molecular target: TIR domain of MyD88 (TIR_(MyD88); residues 153–296) (human) (UniProt Q99836)
Test: high-speed AFM; preformed TIR_(MyD88) rings on mica; 7 μL of 50 μM GST-TIR_(TLR2), TIR_(TLR2), GST-TIR_(TLR5) or GST added to 63 μL of buffer (final 5 μM) while scanning; 20 mM HEPES pH 7.0, 50 mM NaCl, 10 mM DTT; room temperature; topping events on rings counted; both purified

binding: binds
Substance: GST-TIR_(TLR5) (from UniProt O60602 685-858) (domain or fragment)
